Test results from the supplement of paper PMC12595434, “Development of retinoid nuclear receptor pathway antagonists through targeting aldehyde dehydrogenase 1A3” (iScience, 2025).
Some of the results follow. The data scatter; read single values as rough.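 Many melting curves are irregular; where none melted, Tm was taken as 64 °C.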

Amino acid sequences for entries named in this document (tags omitted). A change or cut given only in a name is not applied to a line headed by its entry.
UniProt Q13825: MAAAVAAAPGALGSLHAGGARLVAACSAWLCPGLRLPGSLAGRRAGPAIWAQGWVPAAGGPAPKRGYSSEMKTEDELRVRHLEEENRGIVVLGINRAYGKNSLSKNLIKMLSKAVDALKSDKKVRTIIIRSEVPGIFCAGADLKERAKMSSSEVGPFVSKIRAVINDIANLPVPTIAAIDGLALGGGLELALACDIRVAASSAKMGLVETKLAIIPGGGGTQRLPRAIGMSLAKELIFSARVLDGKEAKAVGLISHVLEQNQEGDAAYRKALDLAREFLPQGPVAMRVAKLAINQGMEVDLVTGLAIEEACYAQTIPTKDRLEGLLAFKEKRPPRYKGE
UniProt Q13188: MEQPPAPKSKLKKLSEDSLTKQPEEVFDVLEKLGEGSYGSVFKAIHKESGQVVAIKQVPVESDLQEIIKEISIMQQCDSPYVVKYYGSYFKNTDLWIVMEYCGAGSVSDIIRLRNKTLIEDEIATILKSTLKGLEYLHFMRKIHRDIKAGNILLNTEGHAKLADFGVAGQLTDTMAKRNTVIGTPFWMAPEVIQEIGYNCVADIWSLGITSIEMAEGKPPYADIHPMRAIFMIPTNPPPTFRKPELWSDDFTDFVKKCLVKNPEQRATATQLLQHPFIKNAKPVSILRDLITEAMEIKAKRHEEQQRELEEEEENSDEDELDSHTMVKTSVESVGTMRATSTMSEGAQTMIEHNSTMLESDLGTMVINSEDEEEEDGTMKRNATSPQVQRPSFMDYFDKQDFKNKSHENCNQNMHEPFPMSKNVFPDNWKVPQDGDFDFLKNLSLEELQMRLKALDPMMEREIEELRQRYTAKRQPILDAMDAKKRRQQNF
UniProt Q13459: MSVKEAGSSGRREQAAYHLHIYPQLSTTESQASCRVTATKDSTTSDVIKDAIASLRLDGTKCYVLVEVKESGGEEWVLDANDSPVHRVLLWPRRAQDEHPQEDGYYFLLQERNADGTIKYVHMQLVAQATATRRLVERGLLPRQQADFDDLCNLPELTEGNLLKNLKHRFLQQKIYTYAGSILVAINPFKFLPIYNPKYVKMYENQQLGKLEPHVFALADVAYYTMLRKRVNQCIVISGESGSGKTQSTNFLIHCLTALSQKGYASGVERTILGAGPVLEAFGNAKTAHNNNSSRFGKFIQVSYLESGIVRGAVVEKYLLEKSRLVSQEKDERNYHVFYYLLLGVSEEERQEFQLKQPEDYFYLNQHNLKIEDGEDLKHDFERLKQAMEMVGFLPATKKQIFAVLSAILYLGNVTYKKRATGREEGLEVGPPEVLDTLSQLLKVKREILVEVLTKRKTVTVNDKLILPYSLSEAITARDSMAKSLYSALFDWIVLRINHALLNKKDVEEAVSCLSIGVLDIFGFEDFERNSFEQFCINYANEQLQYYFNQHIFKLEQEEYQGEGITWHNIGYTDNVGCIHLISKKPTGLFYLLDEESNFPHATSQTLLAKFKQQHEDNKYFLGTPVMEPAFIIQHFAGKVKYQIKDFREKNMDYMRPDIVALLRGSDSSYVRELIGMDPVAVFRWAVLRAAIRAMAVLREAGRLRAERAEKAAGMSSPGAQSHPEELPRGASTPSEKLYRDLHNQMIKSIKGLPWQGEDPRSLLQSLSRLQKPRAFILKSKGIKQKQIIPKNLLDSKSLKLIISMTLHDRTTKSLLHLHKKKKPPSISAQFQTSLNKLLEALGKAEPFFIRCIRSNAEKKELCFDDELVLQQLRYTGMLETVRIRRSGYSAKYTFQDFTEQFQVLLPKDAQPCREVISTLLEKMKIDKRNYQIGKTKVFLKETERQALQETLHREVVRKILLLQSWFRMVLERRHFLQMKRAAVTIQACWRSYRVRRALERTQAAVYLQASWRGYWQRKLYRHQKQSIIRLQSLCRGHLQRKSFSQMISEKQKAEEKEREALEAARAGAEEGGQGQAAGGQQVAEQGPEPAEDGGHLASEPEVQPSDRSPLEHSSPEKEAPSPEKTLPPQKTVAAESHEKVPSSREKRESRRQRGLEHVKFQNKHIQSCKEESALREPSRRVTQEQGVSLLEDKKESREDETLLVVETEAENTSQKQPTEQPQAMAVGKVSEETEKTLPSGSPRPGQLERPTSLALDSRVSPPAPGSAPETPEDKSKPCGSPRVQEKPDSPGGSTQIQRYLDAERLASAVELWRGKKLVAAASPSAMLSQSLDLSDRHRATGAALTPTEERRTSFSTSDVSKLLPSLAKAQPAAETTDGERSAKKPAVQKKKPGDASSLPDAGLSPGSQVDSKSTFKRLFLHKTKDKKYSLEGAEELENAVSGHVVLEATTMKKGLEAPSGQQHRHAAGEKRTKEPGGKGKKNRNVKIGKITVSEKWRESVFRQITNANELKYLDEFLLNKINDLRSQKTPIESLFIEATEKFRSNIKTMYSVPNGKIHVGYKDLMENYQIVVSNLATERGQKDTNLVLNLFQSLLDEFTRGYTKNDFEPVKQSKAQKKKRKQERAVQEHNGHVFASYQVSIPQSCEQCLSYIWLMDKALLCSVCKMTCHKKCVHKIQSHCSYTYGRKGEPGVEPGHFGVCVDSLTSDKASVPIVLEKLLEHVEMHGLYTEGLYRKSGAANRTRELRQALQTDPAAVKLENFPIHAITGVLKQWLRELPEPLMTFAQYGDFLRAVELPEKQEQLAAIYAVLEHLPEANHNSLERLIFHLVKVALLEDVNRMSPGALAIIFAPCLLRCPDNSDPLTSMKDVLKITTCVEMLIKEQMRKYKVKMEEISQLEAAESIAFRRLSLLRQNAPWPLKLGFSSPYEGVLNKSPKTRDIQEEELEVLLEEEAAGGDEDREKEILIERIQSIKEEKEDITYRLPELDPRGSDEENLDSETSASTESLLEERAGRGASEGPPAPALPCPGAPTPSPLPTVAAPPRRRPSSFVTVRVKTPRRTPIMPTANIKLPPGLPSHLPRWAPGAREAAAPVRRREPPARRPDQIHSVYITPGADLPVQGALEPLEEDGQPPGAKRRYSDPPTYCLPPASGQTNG
UniProt Q13155: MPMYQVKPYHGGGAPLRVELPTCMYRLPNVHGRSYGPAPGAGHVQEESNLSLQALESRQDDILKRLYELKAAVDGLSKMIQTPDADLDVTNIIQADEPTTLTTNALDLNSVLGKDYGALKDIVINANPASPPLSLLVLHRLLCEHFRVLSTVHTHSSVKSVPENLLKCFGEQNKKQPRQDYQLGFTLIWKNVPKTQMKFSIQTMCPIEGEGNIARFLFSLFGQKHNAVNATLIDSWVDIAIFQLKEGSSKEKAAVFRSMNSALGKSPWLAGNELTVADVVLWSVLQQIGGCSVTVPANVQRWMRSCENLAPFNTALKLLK
UniProt Q13451: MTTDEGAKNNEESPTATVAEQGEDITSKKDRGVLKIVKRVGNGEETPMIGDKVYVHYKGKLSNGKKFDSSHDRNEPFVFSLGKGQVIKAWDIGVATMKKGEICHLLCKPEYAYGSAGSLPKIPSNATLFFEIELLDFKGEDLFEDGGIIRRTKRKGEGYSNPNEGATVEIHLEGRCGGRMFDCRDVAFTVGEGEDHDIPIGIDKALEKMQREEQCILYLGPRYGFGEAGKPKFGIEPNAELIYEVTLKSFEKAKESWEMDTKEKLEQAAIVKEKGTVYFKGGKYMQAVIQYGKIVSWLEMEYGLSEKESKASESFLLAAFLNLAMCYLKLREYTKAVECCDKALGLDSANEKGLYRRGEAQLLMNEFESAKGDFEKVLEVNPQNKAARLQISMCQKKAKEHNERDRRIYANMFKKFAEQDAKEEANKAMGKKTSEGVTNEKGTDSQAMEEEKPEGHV
UniProt Q13444: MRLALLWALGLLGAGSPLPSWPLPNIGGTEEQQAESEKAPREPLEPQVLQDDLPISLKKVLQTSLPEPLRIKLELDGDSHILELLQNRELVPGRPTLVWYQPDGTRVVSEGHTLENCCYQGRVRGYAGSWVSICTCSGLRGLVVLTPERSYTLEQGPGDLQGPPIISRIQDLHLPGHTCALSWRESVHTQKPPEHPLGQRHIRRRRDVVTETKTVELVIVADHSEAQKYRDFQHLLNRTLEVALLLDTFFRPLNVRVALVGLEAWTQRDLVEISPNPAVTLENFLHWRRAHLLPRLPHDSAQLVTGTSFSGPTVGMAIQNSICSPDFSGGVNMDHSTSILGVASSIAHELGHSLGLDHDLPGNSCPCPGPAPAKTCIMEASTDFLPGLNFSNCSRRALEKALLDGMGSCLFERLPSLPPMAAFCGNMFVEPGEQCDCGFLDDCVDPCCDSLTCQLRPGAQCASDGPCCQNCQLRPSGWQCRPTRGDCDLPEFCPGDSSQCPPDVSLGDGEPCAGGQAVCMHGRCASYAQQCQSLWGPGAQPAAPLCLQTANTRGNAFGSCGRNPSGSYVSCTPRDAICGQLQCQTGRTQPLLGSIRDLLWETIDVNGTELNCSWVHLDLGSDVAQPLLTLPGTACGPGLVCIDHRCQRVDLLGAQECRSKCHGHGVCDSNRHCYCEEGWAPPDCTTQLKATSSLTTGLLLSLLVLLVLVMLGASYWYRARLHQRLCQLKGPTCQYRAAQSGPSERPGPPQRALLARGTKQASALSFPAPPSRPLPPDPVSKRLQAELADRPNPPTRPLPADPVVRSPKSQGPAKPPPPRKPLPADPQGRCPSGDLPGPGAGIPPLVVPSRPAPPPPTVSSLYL
UniProt Q13158: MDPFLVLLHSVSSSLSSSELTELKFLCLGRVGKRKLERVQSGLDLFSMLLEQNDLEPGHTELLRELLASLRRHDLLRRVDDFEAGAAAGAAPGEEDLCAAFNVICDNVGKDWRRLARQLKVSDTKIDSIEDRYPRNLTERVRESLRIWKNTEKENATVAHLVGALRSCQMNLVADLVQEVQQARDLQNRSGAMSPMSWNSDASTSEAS
UniProt Q13490, whole entry: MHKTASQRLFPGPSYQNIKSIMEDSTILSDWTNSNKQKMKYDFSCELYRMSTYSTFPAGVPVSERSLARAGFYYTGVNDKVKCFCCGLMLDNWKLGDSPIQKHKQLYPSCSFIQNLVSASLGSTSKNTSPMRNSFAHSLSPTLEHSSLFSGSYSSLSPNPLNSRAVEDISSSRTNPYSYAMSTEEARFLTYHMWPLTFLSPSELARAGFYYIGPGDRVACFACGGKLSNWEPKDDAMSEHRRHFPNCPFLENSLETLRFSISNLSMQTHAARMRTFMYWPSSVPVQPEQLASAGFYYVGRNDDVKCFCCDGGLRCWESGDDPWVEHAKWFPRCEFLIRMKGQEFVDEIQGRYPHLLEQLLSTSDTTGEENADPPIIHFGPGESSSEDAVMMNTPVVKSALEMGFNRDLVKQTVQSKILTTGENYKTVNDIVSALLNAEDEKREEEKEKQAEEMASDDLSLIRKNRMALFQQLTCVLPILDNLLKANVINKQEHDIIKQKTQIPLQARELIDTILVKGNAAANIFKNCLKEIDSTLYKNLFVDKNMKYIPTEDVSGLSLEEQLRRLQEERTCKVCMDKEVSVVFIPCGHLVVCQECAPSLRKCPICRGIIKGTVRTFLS
UniProt Q13151: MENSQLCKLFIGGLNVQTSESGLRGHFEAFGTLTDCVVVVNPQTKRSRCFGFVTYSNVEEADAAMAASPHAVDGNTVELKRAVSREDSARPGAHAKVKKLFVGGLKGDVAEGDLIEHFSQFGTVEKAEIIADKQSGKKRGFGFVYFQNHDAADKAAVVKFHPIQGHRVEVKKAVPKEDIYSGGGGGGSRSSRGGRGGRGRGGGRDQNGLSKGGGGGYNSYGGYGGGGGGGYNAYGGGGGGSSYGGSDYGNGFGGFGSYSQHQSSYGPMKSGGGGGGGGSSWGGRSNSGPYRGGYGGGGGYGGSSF
UniProt Q13277: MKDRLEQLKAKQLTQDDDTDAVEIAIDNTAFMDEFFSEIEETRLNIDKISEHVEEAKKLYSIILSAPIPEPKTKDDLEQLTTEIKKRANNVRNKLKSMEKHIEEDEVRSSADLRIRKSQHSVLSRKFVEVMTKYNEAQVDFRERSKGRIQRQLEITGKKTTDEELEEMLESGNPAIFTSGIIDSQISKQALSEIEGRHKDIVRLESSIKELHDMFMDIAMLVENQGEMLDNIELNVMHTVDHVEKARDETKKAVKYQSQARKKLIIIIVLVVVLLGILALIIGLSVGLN
UniProt Q14142: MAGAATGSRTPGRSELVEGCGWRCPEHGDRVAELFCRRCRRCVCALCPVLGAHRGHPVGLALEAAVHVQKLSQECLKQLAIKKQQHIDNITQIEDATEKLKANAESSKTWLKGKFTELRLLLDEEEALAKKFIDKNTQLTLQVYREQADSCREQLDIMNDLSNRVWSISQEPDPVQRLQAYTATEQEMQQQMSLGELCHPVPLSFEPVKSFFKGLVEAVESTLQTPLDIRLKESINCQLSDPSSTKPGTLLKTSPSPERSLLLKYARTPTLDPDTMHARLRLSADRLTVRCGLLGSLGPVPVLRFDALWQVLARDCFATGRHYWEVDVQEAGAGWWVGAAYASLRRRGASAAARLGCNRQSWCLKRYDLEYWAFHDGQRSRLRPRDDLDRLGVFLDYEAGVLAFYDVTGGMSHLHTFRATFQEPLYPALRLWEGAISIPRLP

Compound: CCc1cnccc1C(=O)Nc1cc2c(cc1F)NC(=O)CC2
Assay: melting temperature shift (DMSO Tm minus MBE1-treated Tm) in cellular thermal proteome profiling; higher = less thermal stabilization by MBE1 (negative = stabilized by MBE1)
Settings: A375

Row | Target | melting temperature shift (MBE1 concentration: 100 nM) [°C] | melting temperature shift (MBE1 concentration: 1 uM) [°C]
1 | DCTN2 (UniProt Q13561) | 1.17 | 0.556
2 | MAD2L1 (UniProt Q13257) | -0.47 | -0.763
3 | XRCC4 (UniProt Q13426) | -2.26 | -4.79
4 | UniProt Q149N8 | – | 2.38
5 | DSG2 (UniProt Q14126) | -1.03 | 0.175
6 | AUH (UniProt Q13825) | – | 0.434
7 | UniProt Q15048 | 1.07 | –
8 | GIT2 (UniProt Q14161) | -0.472 | 0.24
9 | NUMA1 (UniProt Q14980) | -1.52 | -1.11
10 | UniProt Q14168 | -1.3 | –
11 | UniProt Q13188 | -0.309 | -0.449
12 | MYO9B (UniProt Q13459) | 0.231 | -0.00941
13 | ATM (UniProt Q13315) | -0.465 | 0.409
14 | ITPR1 (UniProt Q14643) | -0.438 | -0.386
15 | UniProt Q13206 | -0.739 | -0.24
16 | AIMP2 (UniProt Q13155) | -1.13 | 0.254
17 | UniProt Q14681 | -0.971 | 0.635
18 | FKBP5 (UniProt Q13451) | -0.0769 | -0.237
19 | ADAM15 (UniProt Q13444) | -1.16 | 1.43
20 | FADD (UniProt Q13158) | -0.452 | 0.282
21 | BIRC2 (UniProt Q13490) | 0.464 | 0.293
22 | MDC1 (UniProt Q14676) | -0.238 | 0.653
23 | HNRNPA0 (UniProt Q13151) | -0.314 | -0.628
24 | SPTAN1 (UniProt Q13813) | -0.496 | 0.0183

Row | Target | melting temperature shift (MBE1 concentration: 100 nM) [°C] | melting temperature shift (MBE1 concentration: 1 uM) [°C]
25 | STX3 (UniProt Q13277) | -0.995 | -0.629
26 | BMS1 (UniProt Q14692) | 0.214 | 0.721
27 | UniProt Q14142 | -1.45 | -1.3
28 | GOLGA4 (UniProt Q13439) | -1.09 | -0.772
29 | GAPVD1 (UniProt Q14C86) | 0.0188 | -0.305
30 | TRIM28 (UniProt Q13263) | 0.11 | -0.659
31 | TMED1 (UniProt Q13445) | -1.34 | -2.45
32 | UniProt Q13164 | -0.00941 | 0.414
33 | EIF4A2 (UniProt Q14240) | -0.107 | 0.925
34 | EXOSC7 (UniProt Q15024) | -1.36 | 0.527
35 | TCOF1 (UniProt Q13428) | -2.11 | -2.37
36 | UniProt Q13127 | -1.12 | 0.677
37 | UniProt Q14160 | -0.967 | -0.511
38 | CHAF1A (UniProt Q13111) | -0.423 | -0.308
39 | PWP1 (UniProt Q13610) | -0.877 | 0.154
40 | UniProt Q14964 | 0.215 | -0.355
41 | DIP2A (UniProt Q14689) | -1.15 | 0.44
42 | RRS1 (UniProt Q15050) | 1.71 | 0.795
43 | ITPK1 (UniProt Q13572) | 0.44 | 0.855
44 | FAM175B (UniProt Q15018) | -2.4 | -2.4
45 | PDCD11 (UniProt Q14690) | -0.314 | -0.218
46 | EFTUD2 (UniProt Q15029) | -0.821 | -0.868
47 | UniProt Q13488 | -1.47 | -1.17

Rewritten comma-delimited: entries from further up
Row,Target,melting temperature shift (MBE1 concentration: 100 nM) [°C],melting temperature shift (MBE1 concentration: 1 uM) [°C]
25,STX3 (UniProt Q13277),-0.995,-0.629
26,BMS1 (UniProt Q14692),0.214,0.721
28,GOLGA4 (UniProt Q13439),-1.09,-0.772
29,GAPVD1 (UniProt Q14C86),0.0188,-0.305
30,TRIM28 (UniProt Q13263),0.11,-0.659
32,UniProt Q13164,-0.00941,0.414
33,EIF4A2 (UniProt Q14240),-0.107,0.925
34,EXOSC7 (UniProt Q15024),-1.36,0.527
37,UniProt Q14160,-0.967,-0.511
39,PWP1 (UniProt Q13610),-0.877,0.154
43,ITPK1 (UniProt Q13572),0.44,0.855
44,FAM175B (UniProt Q15018),-2.4,-2.4
45,PDCD11 (UniProt Q14690),-0.314,-0.218
